Data published in PubChem BioAssay AID463205 (Broad Institute, 2010).
Out of some 2,400 compounds screened, about 20 (0.8%) were called active.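 Rule for the calls: active = AC50 no more than ten times the highest tested concentration, or full inhibition at every dose giving a flat fit (cut at about 30 µM in these data); inconclusive = flat fit with activity between 30% and 70%, or poor-quality invalid fit; inactive = AC50 more than ten times the top tested dose.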 This is one part of the list.

assay: luciferase-based ADP detection interference – biochemical, luminescence, cell-free, homogeneous, artefact control for GSK-3a inhibitor project, dose response (AID 463205); conditions: Cell-free ADP-Glo detection reagents, 5 uM ADP;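 note: kinase-free counter-screen against the ADP-Glo detection reagents only; potency is for inhibitors that reduce the luminescence signal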

| SMILES | AC50 |
| --- | --- |
| CCSc1nc(N)c(C#N)c(-c2ccco2)c1C#N | inactive: > 30 µM |
| CCC1(CC)NC(=O)N(CC(=O)Nc2sc3c(c2C(N)=O)CCC3)C1=O | inactive: > 30 µM |
| O=C(Nc1ccsc1C(=O)NC1CCCCC1)c1ccccc1 | inactive: > 30 µM |
| CN(CCO)c1ncnc2c1sc1nc(N3CCOCC3)c3c(c12)CCC3 | inactive: > 30 µM |
| CSc1ccc(CN2CCN(Cc3ccc([N+](=O)[O-])cc3)CC2)cc1 | inactive: > 30 µM |
| COc1ccc(-c2cn3cccnc3n2)cc1NC(=O)C1CCCC1 | inactive: > 30 µM |
| CNS(=O)(=O)c1cccc(C(=O)OCC(=O)Nc2ccc(Cl)cn2)c1 | inactive: > 30 µM |
| O=C(O)c1ccc(N=Cc2c(O)ccc3oc4c(c23)CCCC4)cc1 | inactive: > 30 µM |
| COc1cc(CN2CCN(Cc3ccc([N+](=O)[O-])cc3)CC2)c([N+](=O)[O-])cc1OC | inactive: > 30 µM |
| O=c1c2ccccc2nnn1CSc1nnc(-c2ccc3c(c2)OCO3)o1 | inactive: > 30 µM |
| CCC(CC)c1nnc(NC(=O)CCN2C(=O)c3ccccc3C2=O)s1 | inactive: > 30 µM |
| COc1ccc(S(=O)(=O)Nc2ccc(S(=O)(=O)Nc3nc(C)cc(C)n3)cc2)cc1OC | inactive: > 30 µM |
| Cc1ccc(NC(=O)C2CCN(c3ncnc4sc(C)c(C)c34)CC2)cc1S(=O)(=O)N(C)C | inactive: > 30 µM |
| CCCCc1ccc(NC(=O)N[C@@H](C)C(=O)O)cc1 | inactive: > 30 µM |
| CN(C)/N=C/c1cn(-c2ccccc2)nc1-c1cccnc1 | inactive: > 30 µM |
| CCOc1ccc(/C=C/C2=Cc3c(sc(NC(=O)CSc4n[nH]c(N)n4)c3C#N)C(C)(C)C2)cc1 | inactive: > 30 µM |
| Cc1ccc2nc(-c3ccncc3)[nH]c2c1 | inactive: > 30 µM |
| CCCNC(=O)Cn1c(-c2ccc(F)cc2)cc(C(=O)OCC)c1C | inactive: > 30 µM |
| CCCCCCCCCCOC(=O)Cn1c(COc2ccc(OC)cc2)[n+](C)c2ccccc21 | inactive: > 30 µM |
| CCSc1cc(N2CCCC2)nc(-c2ccccc2)n1 | inactive: > 30 µM |
| S=C(Nc1ccc(Nc2ccccc2)cc1)Nc1ccccn1 | inactive: > 30 µM |
| CCCCCCCOC(=O)C1=C(C)Nc2ncnn2C1c1cccs1 (stereo not given) | inactive: > 30 µM |
| O=C(Cn1ccc(C(F)(F)F)n1)N=Nc1c(O)[nH]c2ccc(Br)cc12 | inactive: > 30 µM |
| O=[N+]([O-])c1ccccc1-c1cc(-c2ccccc2O)n[nH]1 | inactive: > 30 µM |
| COc1ccc2nc(SCc3nc(N)nc(Nc4ccccc4)n3)[nH]c2c1 | inactive: > 30 µM |
| O=S(=O)(O)c1cccc(N=Nc2c(O)ccc3ccccc23)c1 | inactive: > 30 µM |
| Cc1c(C(=O)NCCc2ccccc2)oc2ccccc12 | inactive: > 30 µM |
| CC(=O)c1cccc(NC(=O)c2cc(-n3cnnc3)ccc2Cl)c1 | inactive: > 30 µM |

Some of the entries so far, in CSV form:
SMILES,AC50
O=C(O)c1ccc(N=Cc2c(O)ccc3oc4c(c23)CCCC4)cc1,inactive: > 30 µM
COc1cc(CN2CCN(Cc3ccc([N+](=O)[O-])cc3)CC2)c([N+](=O)[O-])cc1OC,inactive: > 30 µM
O=c1c2ccccc2nnn1CSc1nnc(-c2ccc3c(c2)OCO3)o1,inactive: > 30 µM
CCC(CC)c1nnc(NC(=O)CCN2C(=O)c3ccccc3C2=O)s1,inactive: > 30 µM

Following part.

| SMILES | AC50 |
| --- | --- |
| COc1cc(C(=O)Oc2cc(C)cc(C)c2)cc(OC)c1OC | inactive: > 30 µM |
| COc1ccc(/C=C2\Oc3cc(OCC(=O)N4CCC[C@H]4C(=O)O)ccc3C2=O)c(OC)c1 | inactive: > 30 µM |
| O=C(Nc1ccccc1)c1ccc(CSc2ncccn2)cc1 | inactive: > 30 µM |
| Cc1sc(NC(=S)NC(=O)C(C)(C)C)c(C(N)=O)c1C | inactive: > 30 µM |
| COc1ccccc1Nc1nc2c(s1)CCC2 | inactive: > 30 µM |
| Clc1ccc(OCc2nnc(SCc3nnc(-c4ccccc4)o3)o2)c(Cl)c1 | inactive: > 30 µM |
| Cc1ccc(C)c(N2CC(C(=O)Nc3nccs3)CC2=O)c1 (stereo not given) | inactive: > 30 µM |
| S=C(Nc1ccccc1)Nc1ccc2cn[nH]c2c1 | inactive: > 30 µM |
| Cc1ccnc2ccc(SC(F)(F)F)cc12 | inactive: > 30 µM |
| CC(=O)N1CCN(c2ccccc2NC(=O)c2ccc(-c3cccc([N+](=O)[O-])c3)o2)CC1 | inactive: > 30 µM |
| CC(=O)N=Nc1[nH]c(N)c2ccccc12 | inactive: > 30 µM |
| CCCCOC(=O)CNc1n[nH]c(=S)[nH]c1=O | inactive: > 30 µM |
| Nc1ncnc2c1ncn2[C@@H]1O[C@H](COS(=O)(=O)O)[C@@H](O)[C@H]1O | inactive: > 30 µM |
| CC1=C(C(=O)OC(C)C)C(c2cccs2)n2ncnc2N1 (stereo not given) | inactive: > 30 µM |
| Cc1ccc(C(=O)N2NC(c3ccc(F)cc3)C3C(=O)N(c4ccc(C)c(C)c4)C(=O)C32)cc1 (stereo not given) | inactive: > 30 µM |
| COc1cc2c(ccc3cc(OC)c(OC)c(O)c32)cc1O | inactive: > 30 µM |
| N#Cc1cc(-c2cccc(Cl)c2)c[nH]c1=O | inactive: > 30 µM |
| CN(C)Cc1c(C(=O)N/N=C/c2cccnc2)nnn1-c1nonc1N | inactive: > 30 µM |
| O=C(O)c1ccc(Nc2nc(-c3ccccc3)nc3ccccc23)cc1 | inactive: > 30 µM |
| COC(=O)CCCCCCCCC(O)CN(C)C (stereo not given) | inactive: > 30 µM |
| c1ccc2c(c1)c1ccccc1n1c(-c3ccc4c(c3)OCO4)nnc21 | inactive: > 30 µM |
| COc1ccc(Br)cc1C(=O)Nc1ccc(NC(=O)c2ccco2)cc1 | inactive: > 30 µM |
| O=C(c1ccc2c3n(nc2c1)-c1ccccc1CO3)N1CCOCC1 | active: 22.5 µM |
| COc1ccc(S(=O)(=O)Nc2c(C(=O)O)[nH]c3ccc(OC)cc23)cc1 | inactive: > 30 µM |
| Cc1ccc(NC(=O)c2cc(-n3cnnc3)ccc2Cl)c(C)c1 | inactive: > 30 µM |
| COc1ccc(O)c(-c2nc(N)nc(N)n2)c1 | inactive: > 30 µM |
| Cc1cc(C(C#N)c2ccccc2)n2ncnc2n1 (stereo not given) | inactive: > 30 µM |
